From the supplement of paper PMC8728848
Some of the results follow.

Legend:
Experiment in all cases: glycan array binding signal (z-score within array); higher = stronger binding
Conditions in all cases: glycan notation: IUPAC condensed, linker removed
GlcNAc(b1-3)Gal(b1-4)Glc = target: GlcNAc(b1-3)Gal(b1-4)Glc
Outline: (§1)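 The binding signal is a Z-score computed within each array and averaged over linkers. Arrays of the same protein sequence at different concentrations or buffers were also averaged together. Data originate from 3228 arrays in the Consortium for Functional Glycomics database, kept only where the protein sequence was available.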

[1] = target: GlcNAc(b1-3)Gal(b1-4)GlcNAc
Outline: as §1

[2] = target: GlcNAc(b1-3)Gal(b1-4)GlcNAc(b1-3)Gal(b1-4)GlcNAc
Outline: as §1

GlcNAc(b1-3)GalNAc = target: GlcNAc(b1-3)GalNAc
Outline: as §1

GlcNAc(b1-3)Man = target: GlcNAc(b1-3)Man
Outline: as §1

[3] = target: GlcNAc(b1-3)[GlcNAc(b1-4)][GlcNAc(b1-6)]GlcNAc
Outline: as §1

[4] = target: GlcNAc(b1-3)[GlcNAc(b1-6)]Gal(b1-4)GlcNAc
Outline: as §1

[5] = target: GlcNAc(b1-3)[GlcNAc(b1-6)]GalNAc
Outline: as §1

[6] = target: GlcNAc(b1-4)Gal(b1-4)GlcNAc
Outline: as §1

GlcNAc(b1-4)GlcNAc = target: GlcNAc(b1-4)GlcNAc
Outline: as §1

[7] = target: GlcNAc(b1-4)GlcNAc(b1-4)GlcNAc
Outline: as §1

[8] = target: GlcNAc(b1-4)GlcNAc(b1-4)GlcNAc(b1-4)GlcNAc(b1-4)GlcNAc
Outline: as §1

[9] = target: GlcNAc(b1-4)GlcNAc(b1-4)GlcNAc(b1-4)GlcNAc(b1-4)GlcNAc(b1-4)GlcNAc
Outline: as §1

[10] = target: GlcNAc(b1-4)[GlcNAc(b1-6)]GalNAc
Outline: as §1

[11] = target: GlcNAc(b1-6)Gal(b1-4)GlcNAc
Outline: as §1

GlcNAc(b1-6)GalNAc = target: GlcNAc(b1-6)GalNAc
Outline: as §1

GlcNAc3Prop(b1-4)GlcNAc = target: GlcNAc3Prop(b1-4)GlcNAc
Outline: as §1

[12] = target: GlcNAc6S(b1-3)Gal(b1-4)GlcNAc
Outline: as §1

Kdn(a2-3)Gal(b1-3)GalNAc = target: Kdn(a2-3)Gal(b1-3)GalNAc
Outline: as §1

Kdn(a2-3)Gal(b1-3)GlcNAc = target: Kdn(a2-3)Gal(b1-3)GlcNAc
Outline: as §1

Kdn(a2-3)Gal(b1-4)Glc = target: Kdn(a2-3)Gal(b1-4)Glc
Outline: as §1

Kdn(a2-3)Gal(b1-4)GlcNAc = target: Kdn(a2-3)Gal(b1-4)GlcNAc
Outline: as §1

[13] = target: Kdn(a2-3)Gal(b1-4)[Fuc(a1-3)]GlcNAc
Outline: as §1

Kdn(a2-6)Gal(b1-4)GlcNAc = target: Kdn(a2-6)Gal(b1-4)GlcNAc
Outline: as §1

[14] = target: Man(a1-2)Man(a1-2)Man(a1-3)Man
Outline: as §1

[15] = target: Man(a1-2)Man(a1-2)Man(a1-6)[Man(a1-3)]Man
Outline: as §1

Man(a1-2)Man(a1-3)Man = target: Man(a1-2)Man(a1-3)Man
Outline: as §1

[16] = target: Man(a1-2)Man(a1-3)[Man(a1-2)Man(a1-6)]Man
Outline: as §1

[17] = target: Man(a1-2)Man(a1-3)[Man(a1-2)Man(a1-6)]Man(a1-6)[Man(a1-2)Man(a1-2)Man(a1-3)]Man
Outline: as §1

[18] = target: Man(a1-2)Man(a1-3)[Man(a1-2)Man(a1-6)]Man(a1-6)[Man(a1-2)Man(a1-2)Man(a1-3)]Man(b1-4)GlcNAc(b1-4)GlcNAc
Outline: as §1

[19] = target: Man(a1-2)Man(a1-3)[Man(a1-6)]Man(a1-6)[Man(a1-2)Man(a1-3)]Man(b1-4)GlcNAc(b1-4)GlcNAc
Outline: as §1

[20] = target: Man(a1-2)Man(a1-6)[Man(a1-3)]Man(a1-6)[Man(a1-2)Man(a1-2)Man(a1-3)]Man
Outline: as §1

[21] = target: Man(a1-2)Man(a1-6)[Man(a1-3)]Man(a1-6)[Man(a1-2)Man(a1-2)Man(a1-3)]Man(b1-4)GlcNAc(b1-4)GlcNAc
Outline: as §1

Man(a1-3)[Man(a1-6)]Man = target: Man(a1-3)[Man(a1-6)]Man
Outline: as §1

[22] = target: Man(a1-3)[Man(a1-6)]Man(a1-6)[Man(a1-2)Man(a1-3)]Man(b1-4)GlcNAc(b1-4)GlcNAc
Outline: as §1

[23] = target: Man(a1-3)[Man(a1-6)]Man(a1-6)[Man(a1-3)]Man
Outline: as §1

[24] = target: Man(a1-3)[Man(a1-6)]Man(a1-6)[Man(a1-3)]Man(b1-4)GlcNAc(b1-4)GlcNAc
Outline: as §1

[25] = target: Man(a1-3)[Man(a1-6)]Man(b1-4)GlcNAc(b1-4)GlcNAc
Outline: as §1

Man(a1-6)Man = target: Man(a1-6)Man
Outline: as §1

Man(b1-4)GlcNAc = target: Man(b1-4)GlcNAc
Outline: as §1

Neu5Ac(a2-3)Gal = target: Neu5Ac(a2-3)Gal
Outline: as §1

[26] = target: Neu5Ac(a2-3)Gal(b1-3)GalNAc
Outline: as §1

[27] = target: Neu5Ac(a2-3)Gal(b1-3)GalNAc(b1-3)Gal(a1-4)Gal(b1-4)Glc
Outline: as §1

[28] = target: Neu5Ac(a2-3)Gal(b1-3)GalNAc(b1-4)[Neu5Ac(a2-3)]Gal(b1-4)Glc
Outline: as §1

[29] = target: Neu5Ac(a2-3)Gal(b1-3)GalNAc(b1-4)[Neu5Ac(a2-8)Neu5Ac(a2-3)]Gal(b1-4)Glc
Outline: as §1

[30] = target: Neu5Ac(a2-3)Gal(b1-3)GalNAc6S
Outline: as §1

[31] = target: Neu5Ac(a2-3)Gal(b1-3)GlcNAc
Outline: as §1

[32] = target: Neu5Ac(a2-3)Gal(b1-3)GlcNAc(b1-3)Gal(b1-3)GlcNAc
Outline: as §1

[33] = target: Neu5Ac(a2-3)Gal(b1-3)GlcNAc(b1-3)Gal(b1-4)GlcNAc
Outline: as §1

[34] = target: Neu5Ac(a2-3)Gal(b1-3)GlcNAc(b1-3)GalNAc
Outline: as §1

[35] = target: Neu5Ac(a2-3)Gal(b1-3)GlcNAc6S
Outline: as §1

[36] = target: Neu5Ac(a2-3)Gal(b1-3)[Fuc(a1-4)]GlcNAc
Outline: as §1

[37] = target: Neu5Ac(a2-3)Gal(b1-3)[Fuc(a1-4)]GlcNAc(b1-3)Gal(b1-3)[Fuc(a1-4)]GlcNAc
Outline: as §1

[38] = target: Neu5Ac(a2-3)Gal(b1-3)[Fuc(a1-4)]GlcNAc(b1-3)Gal(b1-4)[Fuc(a1-3)]GlcNAc
Outline: as §1

[39] = target: Neu5Ac(a2-3)Gal(b1-3)[Neu5Ac(a2-3)Gal(b1-4)]GlcNAc
Outline: as §1

[40] = target: Neu5Ac(a2-3)Gal(b1-3)[Neu5Ac(a2-6)]GalNAc
Outline: as §1

Neu5Ac(a2-3)Gal(b1-4)Glc = target: Neu5Ac(a2-3)Gal(b1-4)Glc
Outline: as §1

[41] = target: Neu5Ac(a2-3)Gal(b1-4)GlcNAc
Outline: as §1

[42] = target: Neu5Ac(a2-3)Gal(b1-4)GlcNAc(b1-2)Man(a1-3)[GlcNAc(b1-2)Man(b1-4)GlcNAc(b1-2)Man(a1-6)]Man(b1-4)GlcNAc(b1-4)GlcNAc
Outline: as §1

[43] = target: Neu5Ac(a2-3)Gal(b1-4)GlcNAc(b1-2)Man(a1-3)[Neu5Ac(a2-6)Gal(b1-4)GlcNAc(b1-2)Man(a1-6)]Man(b1-4)GlcNAc(b1-4)GlcNAc
Outline: as §1

[44] = target: Neu5Ac(a2-3)Gal(b1-4)GlcNAc(b1-3)Gal
Outline: as §1

[45] = target: Neu5Ac(a2-3)Gal(b1-4)GlcNAc(b1-3)Gal(b1-3)GlcNAc
Outline: as §1

[46] = target: Neu5Ac(a2-3)Gal(b1-4)GlcNAc(b1-3)Gal(b1-4)GlcNAc
Outline: as §1

[47] = target: Neu5Ac(a2-3)Gal(b1-4)GlcNAc(b1-3)Gal(b1-4)GlcNAc(b1-3)Gal(b1-4)GlcNAc
Outline: as §1

[48] = target: Neu5Ac(a2-3)Gal(b1-4)GlcNAc(b1-3)Gal(b1-4)[Fuc(a1-3)]GlcNAc
Outline: as §1

B1: Protectin (Homo sapiens), P13987 (protein)
chain: MGIQGGSVLFGLLLVLAVFCHSGHSLQCYNCPNPTADCKTAVNCSSDFDACLITKAGLQVYNKCWKFEHCNFNDVTTRLRENELTYYCCKKDLCNFNEQLENGGTSLSEKTVLLLVTPFLAAAWSLHP
- glycan array binding signal (z-score) (GlcNAc(b1-3)Gal(b1-4)Glc): 0.573
- glycan array binding signal (z-score) [1]: -1.56
- glycan array binding signal (z-score) [2]: 0.315
- glycan array binding signal (z-score) (GlcNAc(b1-3)GalNAc): -0.942
- glycan array binding signal (z-score) (GlcNAc(b1-3)Man): -0.793
- glycan array binding signal (z-score) [3]: -0.105
- glycan array binding signal (z-score) [4]: -0.188
- glycan array binding signal (z-score) [5]: -0.61
- glycan array binding signal (z-score) [6]: -0.995
- glycan array binding signal (z-score) (GlcNAc(b1-4)GlcNAc): -0.159
- glycan array binding signal (z-score) [7]: 0.162
- glycan array binding signal (z-score) [8]: 0.181
- glycan array binding signal (z-score) [9]: -1.56
- glycan array binding signal (z-score) [10]: -0.104
- glycan array binding signal (z-score) [11]: -0.31
- glycan array binding signal (z-score) (GlcNAc(b1-6)GalNAc): 1.09
- glycan array binding signal (z-score) (GlcNAc3Prop(b1-4)GlcNAc): -1.51
- glycan array binding signal (z-score) [12]: -0.098
- glycan array binding signal (z-score) (Kdn(a2-3)Gal(b1-3)GalNAc): -1.16
- glycan array binding signal (z-score) (Kdn(a2-3)Gal(b1-3)GlcNAc): -1.23
- glycan array binding signal (z-score) (Kdn(a2-3)Gal(b1-4)Glc): -0.128
- glycan array binding signal (z-score) (Kdn(a2-3)Gal(b1-4)GlcNAc): -1.49
- glycan array binding signal (z-score) [13]: -0.103
- glycan array binding signal (z-score) (Kdn(a2-6)Gal(b1-4)GlcNAc): -0.416
- glycan array binding signal (z-score) [14]: -0.54
- glycan array binding signal (z-score) [15]: -0.785
- glycan array binding signal (z-score) (Man(a1-2)Man(a1-3)Man): 0.339
- glycan array binding signal (z-score) [16]: -0.712
- glycan array binding signal (z-score) [17]: -0.071
- glycan array binding signal (z-score) [18]: -0.125
- glycan array binding signal (z-score) [19]: -0.792
- glycan array binding signal (z-score) [20]: 0.157
- glycan array binding signal (z-score) [21]: 0.029
- glycan array binding signal (z-score) (Man(a1-3)[Man(a1-6)]Man): 0.733
- glycan array binding signal (z-score) [22]: 1.21
- glycan array binding signal (z-score) [23]: -1.06
- glycan array binding signal (z-score) [24]: 0.49
- glycan array binding signal (z-score) [25]: 0.92
- glycan array binding signal (z-score) (Man(a1-6)Man): -1.23
- glycan array binding signal (z-score) (Man(b1-4)GlcNAc): -0.439
- glycan array binding signal (z-score) (Neu5Ac(a2-3)Gal): -0.121
- glycan array binding signal (z-score) [26]: -0.183
- glycan array binding signal (z-score) [27]: -0.658
- glycan array binding signal (z-score) [28]: -0.296
- glycan array binding signal (z-score) [29]: 1.93
- glycan array binding signal (z-score) [30]: -0.776
- glycan array binding signal (z-score) [31]: -0.425
- glycan array binding signal (z-score) [32]: -0.261
- glycan array binding signal (z-score) [33]: 0.09
- glycan array binding signal (z-score) [34]: -0.209
- glycan array binding signal (z-score) [35]: 0.002
- glycan array binding signal (z-score) [36]: 0.387
- glycan array binding signal (z-score) [37]: 3.13
- glycan array binding signal (z-score) [38]: -0.979
- glycan array binding signal (z-score) [39]: 0.165
- glycan array binding signal (z-score) [40]: -0.048
- glycan array binding signal (z-score) (Neu5Ac(a2-3)Gal(b1-4)Glc): -0.33
- glycan array binding signal (z-score) [41]: -0.569
- glycan array binding signal (z-score) [42]: -0.519
- glycan array binding signal (z-score) [43]: -0.215
- glycan array binding signal (z-score) [44]: -0.777
- glycan array binding signal (z-score) [45]: -0.569
- glycan array binding signal (z-score) [46]: 0.462
- glycan array binding signal (z-score) [47]: 0.847
- glycan array binding signal (z-score) [48]: 0.647
